Experimental findings from publication PMC2775670 are described below.

Sequences of proteins named here, by UniProt entry; tags and fusion partners are left off.
UniProt P09269: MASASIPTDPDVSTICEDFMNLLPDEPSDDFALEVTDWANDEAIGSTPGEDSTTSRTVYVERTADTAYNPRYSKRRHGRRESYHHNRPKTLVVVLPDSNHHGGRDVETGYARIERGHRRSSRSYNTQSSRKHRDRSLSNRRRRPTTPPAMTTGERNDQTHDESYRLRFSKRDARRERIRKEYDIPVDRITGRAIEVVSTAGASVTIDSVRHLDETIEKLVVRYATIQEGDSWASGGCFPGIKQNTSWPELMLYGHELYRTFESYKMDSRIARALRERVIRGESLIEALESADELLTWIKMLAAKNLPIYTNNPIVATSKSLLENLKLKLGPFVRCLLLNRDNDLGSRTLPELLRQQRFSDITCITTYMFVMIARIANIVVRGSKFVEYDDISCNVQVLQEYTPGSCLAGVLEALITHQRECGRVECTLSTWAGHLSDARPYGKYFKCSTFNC

This test addresses IE4-V5 (pcDNA3.1/V5-His-TOPO-IE4) expressed in HeLa cells (Varicella-Zoster virus) (UniProt P09269). Description: co-IP.

Results are given in words; binding and its absence hold for the method and conditions named. Binding seen in cells or lysates may run through a third protein. Some results given as binding are weak or reduced against the parent protein; the word gives no strength. Tags and fused reporters may be left off the sequences shown.

B1: HA-9G8 (pCMV-HA-9G8) (protein, UniProt Q16629 1-238)
chain: MSRYGRYGGETKVYVGNLGTGAGKGELERAFSYYGPLRTVWIARNPPGFAFVEFEDPRDAEDAVRGLDGKVICGSRVRVELSTGMPRRSRFDRPPARRPFDPNDRCYECGEKGHYAYDCHRYSRRRRSRSRSRSHSRSRGRRYSRSRSRSRGRRSRSASPRRSRSISLRRSRSASLRRSRSGSIKGSRYFQSPSRSRSRSRSISRPRSSRSKSRSPSPKRSRSPSGSPRRSASPERMD
As to B1, the binding entry was “binds”.

B2: endogenous SRp20 of HeLa cells (protein, UniProt P84103 1-164)
chain: MHRDSCPLDCKVYVGNLGNNGNKTELERAFGYYGPLRSVWVARNPPGFAFVEFEDPRDAADAVRELDGRTLCGCRVRVELSNGEKRSRNRGPPPSWGRRPRDDYRRRSPPPRRRSPRRRSFSRSRSRSLSRDRRRERSLSRERNHKPSRSFSRSRSRSRSNERK
In the case of B2, the binding entry is listed as “binds”.

B3: HA-SRp20 (pCMV-HA-SRp20) (protein, UniProt P84103 1-164)
chain: MHRDSCPLDCKVYVGNLGNNGNKTELERAFGYYGPLRSVWVARNPPGFAFVEFEDPRDAADAVRELDGRTLCGCRVRVELSNGEKRSRNRGPPPSWGRRPRDDYRRRSPPPRRRSPRRRSFSRSRSRSLSRDRRRERSLSRERNHKPSRSFSRSRSRSRSNERK
Consider B3, for which the binding result was “binds”.
